Experimental data as given in patent publication US20060127914A1 (priority 1999, published 2006).
At least one compound was matched to its structure with a doubt left.

Sequences of proteins named here, by UniProt entry; tags and fusion partners are left off. A change or cut given only in a name is not applied to a line headed by its entry. Residues count along the entry.
UniProt Q9UGM1, 23-479 N442S: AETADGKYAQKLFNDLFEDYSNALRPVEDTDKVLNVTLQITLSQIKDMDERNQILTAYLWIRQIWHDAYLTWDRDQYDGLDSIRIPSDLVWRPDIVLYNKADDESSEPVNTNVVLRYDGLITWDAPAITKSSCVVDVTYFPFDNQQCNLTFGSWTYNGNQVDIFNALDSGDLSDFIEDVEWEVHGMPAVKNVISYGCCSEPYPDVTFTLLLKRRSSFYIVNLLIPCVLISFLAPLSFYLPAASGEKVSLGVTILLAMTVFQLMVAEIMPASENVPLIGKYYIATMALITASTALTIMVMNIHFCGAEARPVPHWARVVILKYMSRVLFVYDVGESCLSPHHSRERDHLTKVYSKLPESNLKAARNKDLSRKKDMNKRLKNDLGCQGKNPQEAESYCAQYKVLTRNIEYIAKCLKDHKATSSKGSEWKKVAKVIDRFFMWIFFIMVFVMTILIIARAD
UniProt Q9GZZ6, 25-450: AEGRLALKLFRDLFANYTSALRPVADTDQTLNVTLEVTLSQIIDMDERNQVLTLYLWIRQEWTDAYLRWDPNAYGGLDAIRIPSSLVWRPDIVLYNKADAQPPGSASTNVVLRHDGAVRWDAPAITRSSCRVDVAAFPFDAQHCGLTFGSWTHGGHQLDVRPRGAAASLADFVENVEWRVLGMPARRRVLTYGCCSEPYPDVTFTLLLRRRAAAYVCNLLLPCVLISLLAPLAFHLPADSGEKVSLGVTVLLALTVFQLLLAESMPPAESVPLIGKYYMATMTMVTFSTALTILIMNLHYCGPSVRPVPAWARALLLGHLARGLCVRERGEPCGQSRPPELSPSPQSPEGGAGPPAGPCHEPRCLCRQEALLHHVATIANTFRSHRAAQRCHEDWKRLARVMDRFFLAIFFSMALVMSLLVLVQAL

Legend:
[1] = biological target: T1, α9 alone (homomeric α9 nAChR) (Homo sapiens, UniProt Q9UGM1, N442S); test: Two electrode voltage clamp recording in Xenopus oocytes injected with α9 alone; type: cell-based
T1 construct: expressed in transfected cells; host or cells: Xenopus laevis oocytes injected with cRNA made from cDNA in pSP64T.GL+
Experimental: (§1) 5 minutes washout time was allowed between each response. The data is corrected for run-up or run-down and expressed as a percentage of the maximum evoked current. Curves have been fitted using the non-linear curve fitting routine of Graph Pad. The fit is constrained to a lower bound of 0 while the upper bound is unconstrained. The correlation coefficients are R^2=0.9999 and 0.9980 for α9 and α9/α10, respectively.
(§2) Xenopus laevis females were purchased from Blades Biological, UK. The animals were maintained and dissected as described in Gould (1994) Membrane Protein and Expression Systems: a User's Guide Portland Press, London. Stage V or VI oocytes were de-folliculated by incubating with 0.2% collagenase (Sigma) in calcium-free Barth's solution on a vibrating platform set at 8 Hz for 2 hours at 18° C. Oocytes were then maintained in normal Barth's solution (containing 160 IU/ml penicillin and 74 IU/ml streptomycin). On the following day oocytes were injected with 1 to 25 ng cRNA using a Drummond Nanoject and left for at least three days before recording. cRNA was synthesised from cDNAs previously subcloned into the pSP64T.GL+ vector using the SP6 Message Machine Kit (Ambion).
(§3) Two electrode voltage clamp recording was carried out using a TURBO TEC-10CD (NPI Electronic GmbH, D-71732 Tamm, Germany). […]

[2] = biological target: T2, α9/α10 combination (Homo sapiens, UniProt Q9GZZ6+Q9UGM1, N442S); test: Two electrode voltage clamp recording in Xenopus oocytes injected with α9 plus α10; type: cell-based
T2 construct: expressed in transfected cells; host or cells: Xenopus laevis oocytes injected with cRNA made from cDNAs in pSP64T.GL+
Experimental: as §1, §2, §3

CC(=O)OCC[N+](C)(C)C [ACh, acetylcholine]
Hill coefficient of ACh concentration-response curve [1]: 1.41 | Hill coefficient of ACh concentration-response curve [2]: 0.81
